PubChem BioAssay AID1259405 – NCATS | 2018
Here is an unselected part of about 50,000 deposited reagents. About 4,000 of all reagents (8%) count as active. 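Mouse siRNA library applied to hamster cells; one well for each siRNA.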 Reagents against one gene are numbered here. No sequences are given here.

- Aim: 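Silenced genes that increase secreted GFP made by CHO cells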 (primary screen)
- Cells: Chinese hamster CHO-K1 ovary cells with stable secreted eGFP expression
- Reagent: single siRNA against mouse genes, 0.8 pmol siRNA per well (2 µl of 400 nM stock)
- Time to read-out: 3 days
- Measured: 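Per-well intracellular GFP measured by laser scanning cytometry, plus viability from ATP luminescence, each relative to plate median of non-targeting control wells, in %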
- Direction: GFP, % of control: higher = more GFP per well, higher productivity; viability (ATP), % of control: higher = more viable cells (more ATP)
- Rule for the call: 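Called active when intracellular GFP, relative to negative control, is at or above 120%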

The first 11 entries, to show the layout:
gene | reagent no. | GFP, % of control | viability (ATP), % of control | Outcome
Sdk1 | 1 | 83.6 | 50.4 | inactive
Sdk1 | 2 | 57.3 | 67.4 | inactive
Sdk1 | 3 | 92.9 | 104 | inactive
Nr6a1 | 1 | 67 | 40.8 | inactive
Nr6a1 | 2 | 85.3 | 88.8 | inactive
Nr6a1 | 3 | 56.3 | 24.1 | inactive
Kif1b | 1 | 84.1 | 73 | inactive
Kif1b | 2 | 67.1 | 57.3 | inactive
Pfn4 | 1 | 79.8 | 64 | inactive
Pfn4 | 2 | 79.2 | 52.7 | inactive
Pfn4 | 3 | 51.3 | 23.8 | inactive

The list itself, repeating the preview:
gene | reagent no. | GFP, % of control | viability (ATP), % of control | Outcome
Sdk1 | 1 | 83.6 | 50.4 | inactive
Sdk1 | 2 | 57.3 | 67.4 | inactive
Sdk1 | 3 | 92.9 | 104 | inactive
Nr6a1 | 1 | 67 | 40.8 | inactive
Nr6a1 | 2 | 85.3 | 88.8 | inactive
Nr6a1 | 3 | 56.3 | 24.1 | inactive
Kif1b | 1 | 84.1 | 73 | inactive
Kif1b | 2 | 67.1 | 57.3 | inactive
Pfn4 | 1 | 79.8 | 64 | inactive
Pfn4 | 2 | 79.2 | 52.7 | inactive
Pfn4 | 3 | 51.3 | 23.8 | inactive
D630003M21Rik | 1 | 61.6 | 50.5 | inactive
D630003M21Rik | 2 | 149 | 104 | active
D630003M21Rik | 3 | 98.5 | 89.5 | inactive
Sptlc2 | 1 | 61.3 | 66.3 | inactive
Sptlc2 | 2 | 58.5 | 49.3 | inactive
Sptlc2 | 3 | 90 | 82.8 | inactive
Krt7 | 1 | 34.1 | 48.5 | inactive
Krt7 | 2 | 86.8 | 85.5 | inactive
C030006K11Rik | 1 | 68.8 | 84.4 | inactive
C030006K11Rik | 2 | 94.4 | 94.4 | inactive
C030006K11Rik | 3 | 143 | 142 | active
Qtrt2 | 1 | 87.5 | 80 | inactive
Qtrt2 | 2 | 66.4 | 58.5 | inactive
Qtrt2 | 3 | 45 | 48 | inactive
Ctcf | 1 | 85.7 | 69.5 | inactive
Ctcf | 2 | 86.9 | 80.9 | inactive
Fam120c | 1 | 69.4 | 58.4 | inactive
Fam120c | 2 | 50.1 | 71.6 | inactive
Fam120c | 3 | 103 | 103 | inactive
Duoxa1 | 1 | 95.8 | 72.6 | inactive
Duoxa1 | 2 | 94.6 | 105 | inactive
Duoxa1 | 3 | 177 | 138 | active
Or7g35 | 1 | 113 | 72.5 | inactive
Or7g35 | 2 | 74.2 | 76.4 | inactive
Or7g35 | 3 | 85.6 | 125 | inactive
Ell | 1 | 75.8 | 78.5 | inactive
Ell | 2 | 114 | 106 | inactive
Cckbr | 1 | 98.1 | 66.6 | inactive
Cckbr | 2 | 48.7 | 48.1 | inactive
Cckbr | 3 | 72.1 | 62 | inactive
Zbtb3 | 1 | 59 | 67.3 | inactive
Zbtb3 | 2 | 101 | 67.3 | inactive
Zbtb3 | 3 | 88.4 | 103 | inactive
Etv4 | 1 | 55.1 | 61 | inactive
Etv4 | 2 | 152 | 113 | active
Zfyve28 | 1 | 22.1 | 18.1 | inactive
Zfyve28 | 2 | 45.1 | 72.2 | inactive
Zfyve28 | 3 | 119 | 73.1 | inactive
Efcab8 | 1 | 42.9 | 28.2 | inactive
Efcab8 | 2 | 81.1 | 101 | inactive
Efcab8 | 3 | 103 | 118 | inactive
Podxl2 | 1 | 49.3 | 86.6 | inactive
Podxl2 | 2 | 123 | 82.6 | active
Podxl2 | 3 | 160 | 67.5 | active
Snd1 | 1 | 87.1 | 73.4 | inactive
Snd1 | 2 | 111 | 128 | inactive
Crybb3 | 1 | 56.2 | 79.5 | inactive
Crybb3 | 2 | 48.8 | 67 | inactive
Crybb3 | 3 | 105 | 141 | inactive
Or6b2 | 1 | 115 | 98.1 | inactive
Or6b2 | 2 | 80.2 | 61.3 | inactive
Or6b2 | 3 | 77.4 | 109 | inactive
Haus1 | 1 | 60.8 | 50.3 | inactive
Haus1 | 2 | 83.5 | 92.3 | inactive
Haus1 | 3 | 100 | 114 | inactive
Mrps15 | 1 | 68.4 | 69.3 | inactive
Mrps15 | 2 | 64.2 | 66.3 | inactive
Mrps15 | 3 | 90.2 | 81.9 | inactive
Ppp2r2c | 1 | 44.7 | 36.7 | inactive
Ppp2r2c | 2 | 62.3 | 101 | inactive
Ppp2r2c | 3 | 107 | 126 | inactive
Pcdh15 | 1 | 68.2 | 90.5 | inactive
Pcdh15 | 2 | 54.2 | 68.2 | inactive
Dync2h1 | 1 | 97.6 | 92.7 | inactive
Dync2h1 | 2 | 65.8 | 78.3 | inactive
Cldn12 | 1 | 78.8 | 40.3 | inactive
Cldn12 | 2 | 79.6 | 98.4 | inactive
Cldn12 | 3 | 77.5 | 95 | inactive
Il13ra2 | 1 | 72.3 | 52.5 | inactive
Il13ra2 | 2 | 110 | 66.1 | inactive
Il13ra2 | 3 | 92.7 | 84.8 | inactive
Zfp637 | 1 | 78.8 | 69.3 | inactive
Zfp637 | 2 | 63.8 | 47.9 | inactive
Zfp637 | 3 | 138 | 83.5 | active
Calm5 | 1 | 25.8 | 52 | inactive
Calm5 | 2 | 93.4 | 61.3 | inactive
Calm5 | 3 | 67.3 | 63.8 | inactive
Lgals6 | 1 | 39.4 | 42.5 | inactive
Lgals6 | 2 | 42.1 | 34.7 | inactive
Lgals6 | 3 | 74.3 | 54 | inactive
Bcl2l1 | 1 | 41.2 | 50.6 | inactive
Bcl2l1 | 2 | 51.1 | 67.8 | inactive
Bcl2l1 | 3 | 64.6 | 40.5 | inactive
Srrm2 | 1 | 51.6 | 73.7 | inactive
Srrm2 | 2 | 122 | 117 | active
Srrm2 | 3 | 100 | 85.8 | inactive
Usp33 | 1 | 124 | 119 | active
Usp33 | 2 | 35.6 | 46.5 | inactive
Usp33 | 3 | 36.7 | 73.4 | inactive
Prpsap2 | 1 | 118 | 93 | inactive
Kptn | 1 | 75.3 | 90.3 | inactive
Kptn | 2 | 56.7 | 58.7 | inactive
Kptn | 3 | 107 | 82.7 | inactive
Rcor3 | 1 | 89.2 | 57.9 | inactive
Rcor3 | 2 | 41.9 | 48.8 | inactive
Rcor3 | 3 | 69.2 | 74.5 | inactive
